{"source": "patent US20080114173A1", "about": "(priority 2004, published 2008)", "conditions": "clear polyethylene bag, optionally in black polyethylene bag with silica gel, sealed triple laminated bag, HDPE drum; over a period of 60 days"}
{"compound": "COc1cc2c(cc1OC)C(=O)C(CC1CCN(Cc3ccccc3)CC1)C2.Cl", "note": "(racemic) [donepezil hydrochloride form I, (±)-2,3-dihydro-5,6-dimethoxy-2-[[1-(phenylmethyl)-4-piperidinyl]methyl]-1H-inden-1-one hydrochloride]", "values": [{"measurement": "change to the donepezil hydrochloride on storage", "result": "no significant change"}]}
